Laboratory results as given in PubChem BioAssay AID248 (DTP/NCI, 2004).
The list is a part of this screen's results and no random one: it gathers tests that were run many times, whatever their T/C, doses with no T/C, and many T/C values between a quarter and a half above the control. Further doses and runs are listed elsewhere. T/C is the treated group as % of the vehicle group. Some entries give survivors of the animals treated and no T/C: the source files T/C as zero there, which appears to mark a toxic dose or a test without result, not a measured value. Some doses without a T/C left all or most animals alive at the check, yet need not have been tolerated: the source hardly ever lists a survival T/C far under the control, and the zero likely stands for such cases as well. Counts of survivors are from the toxicity check (mostly the fifth day) where no day follows; animals may have died later. Schedules are NCI's codes, taken here to give the interval after Q, in days (D) or hours (H), and the number of doses after X. Some schedules carry Z or #; the key to these is not given. Some entries hold several experiments; the values are given in rising order. Where survival is the endpoint, this PubChem deposit counts one and a half times the control or more as active, and values a quarter to a half above the control carry no call in these data; other NCI protocols may use other cut-offs. Some T/C values carry the count of animals alive at the toxicity check (mostly the fifth day); without a count, all were alive then.

System: L1210 leukemia ip in BDF1 mice, survival T/C
Test: NCI In Vivo Anticancer Drug Screen. Data for tumor model L1210 Leukemia (intraperitoneal) in B6D2F1 (BDF1) mice
Conditions: T/C endpoint: mean survival time, higher T/C = longer survival
[1] = dose: 20.0 mg/kg/injection, schedule: Q## X001 (ip), vehicle: saline
[2] = dose: 25.0 mg/kg/injection, schedule: Q## X001 (ip), vehicle: saline
[3] = dose: 960.0 mg/kg/injection, schedule: Q01DX Z (oral), vehicle: carboxymethylcellulose (CMC)

## COC(=O)[C@@H]1c2cc3c(c(O)c2[C@@H](OC2OC(C)C(OC)C(C)(OC)C2OC)C[C@]1(C)O)C(=O)c1c(O)cc2c(c1C3=O)O[C@H]1O[C@]2(C)[C@H](O)[C@@H](N(C)C)[C@@H]1O (stereo not given in full)
dose: 1.0 mg/kg/injection, schedule: Q## X001 (ip), vehicle: saline
  T/C: 90, 93, 113, 121 % of control
dose: 3.0 mg/kg/injection, schedule: Q01DX Z (ip), vehicle: carboxymethylcellulose (CMC)
  survivor count: 6 of 6
dose: 4.0 mg/kg/injection, schedule: Q01DX009 (ip), vehicle: saline
  survivor count: 4 of 6
dose: 4.0 mg/kg/injection, schedule: Q01DX Z (ip), vehicle: carboxymethylcellulose (CMC)
  survivor count: 4 of 6
dose: 4.0 mg/kg/injection, schedule: Q## X032 (ip), vehicle: saline
  T/C: 128 % of control
dose: 5.0 mg/kg/injection, schedule: Q## X001 (ip), vehicle: saline
  T/C: 90, 98, 109, 113 % of control
dose: 10.0 mg/kg/injection, schedule: Q## X001 (ip), vehicle: saline
  T/C: 95, 106, 113, 121 % of control
dose: 12.0 mg/kg/injection, schedule: Q01DX001 (ip), vehicle: saline
  survivor count: 2 of 4
dose: 15.0 mg/kg/injection, schedule: Q01DX001 (ip), vehicle: saline
  survivor count: 2 of 6
dose: 15.0 mg/kg/injection, schedule: Q## X001 (ip), vehicle: saline
  T/C: 90 [3 of 4 alive], 100 [2 of 3 alive], 109, 109 % of control [3 of 4 alive]
dose: 16.0 mg/kg/injection, schedule: Q## X008 (ip), vehicle: saline
  survivor count: 2 of 6
dose: 16.0 mg/kg/injection, schedule: Q## X032 (ip), vehicle: saline
  survivor count: 1 of 6
dose: 20.0 mg/kg/injection, schedule: Q01DX001 (ip), vehicle: saline
  survivor count: 0 of 6
[1]
  T/C: 98 and 103 % of control
  survivor count: 1 of 4 and 2 of 4
dose: 24.0 mg/kg/injection, schedule: Q## X008 (ip), vehicle: saline
  survivor count: 0 of 6
dose: 25.0 mg/kg/injection, schedule: Q01DX001 (ip), vehicle: saline
  survivor count: 0 of 6
[2]
  T/C: 100 % of control [3 of 4 alive]
  survivor count: 1 of 4, 2 of 4, 3 of 4
dose: 30.0 mg/kg/injection, schedule: Q01DX001 (ip), vehicle: saline
  survivor count: 0 of 6
dose: 30.0 mg/kg/injection, schedule: Q## X001 (ip), vehicle: saline
  survivor count: 0 of 4, 1 of 4, 2 of 4
dose: 32.0 mg/kg/injection, schedule: Q## X008 (ip), vehicle: saline
  survivor count: 0 of 6

## O=c1ccnc(/C=C/c2ccc(Cl)cc2)[nH]1
dose: 100.0 mg/kg/injection, schedule: Q01DX009 (ip), vehicle: saline with Tween-80
  survivor count: 6 of 6

## O=C1CCOP(=O)(NCCCl)N1CCCl (stereo not given)
dose: 100.0 mg/kg/injection, schedule: Q04DX002 (ip), vehicle: DMSO
  survivor count: 3 of 3
dose: 200.0 mg/kg/injection, schedule: Q04DX002 (ip), vehicle: DMSO
  survivor count: 3 of 3
dose: 200.0 mg/kg/injection, schedule: Q04DX002 (ip), vehicle: saline
  T/C: 136 % of control
dose: 400.0 mg/kg/injection, schedule: Q04DX002 (ip), vehicle: DMSO
  survivor count: 3 of 3

## CN(CC(O)CN)c1ccc(Cl)cc1 (stereo not given)
dose: 200.0 mg/kg/injection, schedule: Q01DX001 (ip), vehicle: saline with Tween-80
  survivor count: 2 of 6
dose: 400.0 mg/kg/injection, schedule: Q01DX001 (ip), vehicle: saline with Tween-80
  survivor count: 0 of 6

## CC(C)=C1CCC(C)C/C1=N\N=C(N)N (stereo not given)
dose: 120.0 mg/kg/injection, schedule: Q01DX Z (ip), vehicle: carboxymethylcellulose (CMC)
  survivor count: 0 of 6
[3]
  survivor count: 0 of 6

## CCC1C(CC)N1S(=O)(=O)c1ccccc1 (stereo not given)
dose: 400.0 mg/kg/injection, schedule: Q04DX002 (ip), vehicle: saline with Tween-80
  survivor count: 3 of 3

## Cc1c(-c2ccccc2)cc(O)cc1-c1ccccc1
dose: 400.0 mg/kg/injection, schedule: Q01DX009 (ip), vehicle: saline
  survivor count: 2 of 6

## CN=C(N)N(C)/N=C(C)\C=N\N(C)C(N)=NC
[3]
  survivor count: 5 of 6
dose: 1920.0 mg/kg/injection, schedule: Q01DX Z (oral), vehicle: carboxymethylcellulose (CMC)
  survivor count: 0 of 6
